From the supplement of paper PMC10849652
The list shows a part of the results.

Protein sequences, listed by entry. Tags and fused reporters are not part of them. Lines headed by an entry give the natural chain unless they say otherwise; changes in a name come on top.
UniProt Q70Z53: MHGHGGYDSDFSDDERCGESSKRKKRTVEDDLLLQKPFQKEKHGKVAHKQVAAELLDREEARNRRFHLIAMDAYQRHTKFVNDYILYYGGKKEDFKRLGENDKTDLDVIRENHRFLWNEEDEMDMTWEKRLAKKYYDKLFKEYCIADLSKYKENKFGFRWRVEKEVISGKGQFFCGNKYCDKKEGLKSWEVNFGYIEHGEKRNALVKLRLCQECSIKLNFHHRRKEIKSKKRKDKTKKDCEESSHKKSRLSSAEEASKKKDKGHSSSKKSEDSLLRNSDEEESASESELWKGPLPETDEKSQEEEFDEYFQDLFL
UniProt Q9BTY2: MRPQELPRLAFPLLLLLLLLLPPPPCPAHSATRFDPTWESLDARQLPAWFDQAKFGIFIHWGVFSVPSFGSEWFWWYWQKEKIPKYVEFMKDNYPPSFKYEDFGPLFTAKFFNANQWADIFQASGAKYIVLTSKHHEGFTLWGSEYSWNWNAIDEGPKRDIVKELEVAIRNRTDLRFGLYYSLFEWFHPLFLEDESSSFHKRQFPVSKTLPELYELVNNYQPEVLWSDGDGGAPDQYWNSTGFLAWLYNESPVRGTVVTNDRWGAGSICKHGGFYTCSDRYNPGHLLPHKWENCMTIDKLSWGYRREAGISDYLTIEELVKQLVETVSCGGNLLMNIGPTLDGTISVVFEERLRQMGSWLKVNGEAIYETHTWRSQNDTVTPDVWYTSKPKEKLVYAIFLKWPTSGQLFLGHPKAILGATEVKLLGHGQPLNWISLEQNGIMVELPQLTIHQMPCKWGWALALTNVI
UniProt Q7Z7M9: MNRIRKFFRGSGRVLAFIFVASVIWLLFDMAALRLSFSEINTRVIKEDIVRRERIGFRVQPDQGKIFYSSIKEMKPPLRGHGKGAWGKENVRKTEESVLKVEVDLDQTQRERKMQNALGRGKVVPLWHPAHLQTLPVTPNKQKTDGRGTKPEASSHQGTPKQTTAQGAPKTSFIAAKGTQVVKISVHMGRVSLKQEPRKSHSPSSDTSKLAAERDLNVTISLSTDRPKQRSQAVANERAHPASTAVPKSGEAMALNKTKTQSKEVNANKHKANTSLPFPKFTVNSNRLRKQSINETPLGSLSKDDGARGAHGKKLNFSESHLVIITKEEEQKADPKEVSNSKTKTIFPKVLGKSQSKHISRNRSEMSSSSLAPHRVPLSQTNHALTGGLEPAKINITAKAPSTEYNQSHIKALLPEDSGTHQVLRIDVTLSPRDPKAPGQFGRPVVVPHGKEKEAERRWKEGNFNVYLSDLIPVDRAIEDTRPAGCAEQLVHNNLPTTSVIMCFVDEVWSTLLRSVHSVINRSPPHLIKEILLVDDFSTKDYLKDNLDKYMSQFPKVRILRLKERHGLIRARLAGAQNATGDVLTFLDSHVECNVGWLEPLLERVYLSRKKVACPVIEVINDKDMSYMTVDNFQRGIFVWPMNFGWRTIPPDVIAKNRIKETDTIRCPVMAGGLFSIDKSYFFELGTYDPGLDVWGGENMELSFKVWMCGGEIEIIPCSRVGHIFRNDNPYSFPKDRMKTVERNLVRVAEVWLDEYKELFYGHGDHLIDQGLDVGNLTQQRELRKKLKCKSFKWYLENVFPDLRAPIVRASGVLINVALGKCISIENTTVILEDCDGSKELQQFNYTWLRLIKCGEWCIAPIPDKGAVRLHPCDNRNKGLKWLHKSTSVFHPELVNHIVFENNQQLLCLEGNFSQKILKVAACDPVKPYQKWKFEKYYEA
UniProt Q06547, whole entry, looked up: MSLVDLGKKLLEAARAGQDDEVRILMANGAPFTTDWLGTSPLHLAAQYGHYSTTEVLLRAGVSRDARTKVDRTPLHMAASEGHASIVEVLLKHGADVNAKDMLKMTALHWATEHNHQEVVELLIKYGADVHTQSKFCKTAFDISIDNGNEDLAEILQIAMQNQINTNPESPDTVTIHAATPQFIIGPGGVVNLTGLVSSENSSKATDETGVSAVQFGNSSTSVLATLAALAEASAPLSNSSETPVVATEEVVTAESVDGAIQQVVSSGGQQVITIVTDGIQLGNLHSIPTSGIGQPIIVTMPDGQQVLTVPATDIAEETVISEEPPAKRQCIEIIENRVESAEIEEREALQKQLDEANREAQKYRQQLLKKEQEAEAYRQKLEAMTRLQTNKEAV
UniProt P36268: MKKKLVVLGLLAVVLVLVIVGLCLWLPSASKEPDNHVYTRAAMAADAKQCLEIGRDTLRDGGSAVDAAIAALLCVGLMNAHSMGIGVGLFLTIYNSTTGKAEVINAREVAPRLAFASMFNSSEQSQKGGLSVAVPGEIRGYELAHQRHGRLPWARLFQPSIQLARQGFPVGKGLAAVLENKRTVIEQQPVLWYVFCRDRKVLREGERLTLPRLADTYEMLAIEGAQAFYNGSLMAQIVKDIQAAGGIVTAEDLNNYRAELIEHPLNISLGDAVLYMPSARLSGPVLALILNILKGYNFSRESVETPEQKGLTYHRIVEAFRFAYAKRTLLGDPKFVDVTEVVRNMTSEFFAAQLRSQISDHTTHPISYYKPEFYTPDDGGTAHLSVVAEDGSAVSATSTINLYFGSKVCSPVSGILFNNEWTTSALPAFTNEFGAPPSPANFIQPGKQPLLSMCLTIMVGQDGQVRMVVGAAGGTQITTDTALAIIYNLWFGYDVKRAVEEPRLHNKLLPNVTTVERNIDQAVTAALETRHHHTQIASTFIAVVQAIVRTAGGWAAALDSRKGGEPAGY
UniProt P22102: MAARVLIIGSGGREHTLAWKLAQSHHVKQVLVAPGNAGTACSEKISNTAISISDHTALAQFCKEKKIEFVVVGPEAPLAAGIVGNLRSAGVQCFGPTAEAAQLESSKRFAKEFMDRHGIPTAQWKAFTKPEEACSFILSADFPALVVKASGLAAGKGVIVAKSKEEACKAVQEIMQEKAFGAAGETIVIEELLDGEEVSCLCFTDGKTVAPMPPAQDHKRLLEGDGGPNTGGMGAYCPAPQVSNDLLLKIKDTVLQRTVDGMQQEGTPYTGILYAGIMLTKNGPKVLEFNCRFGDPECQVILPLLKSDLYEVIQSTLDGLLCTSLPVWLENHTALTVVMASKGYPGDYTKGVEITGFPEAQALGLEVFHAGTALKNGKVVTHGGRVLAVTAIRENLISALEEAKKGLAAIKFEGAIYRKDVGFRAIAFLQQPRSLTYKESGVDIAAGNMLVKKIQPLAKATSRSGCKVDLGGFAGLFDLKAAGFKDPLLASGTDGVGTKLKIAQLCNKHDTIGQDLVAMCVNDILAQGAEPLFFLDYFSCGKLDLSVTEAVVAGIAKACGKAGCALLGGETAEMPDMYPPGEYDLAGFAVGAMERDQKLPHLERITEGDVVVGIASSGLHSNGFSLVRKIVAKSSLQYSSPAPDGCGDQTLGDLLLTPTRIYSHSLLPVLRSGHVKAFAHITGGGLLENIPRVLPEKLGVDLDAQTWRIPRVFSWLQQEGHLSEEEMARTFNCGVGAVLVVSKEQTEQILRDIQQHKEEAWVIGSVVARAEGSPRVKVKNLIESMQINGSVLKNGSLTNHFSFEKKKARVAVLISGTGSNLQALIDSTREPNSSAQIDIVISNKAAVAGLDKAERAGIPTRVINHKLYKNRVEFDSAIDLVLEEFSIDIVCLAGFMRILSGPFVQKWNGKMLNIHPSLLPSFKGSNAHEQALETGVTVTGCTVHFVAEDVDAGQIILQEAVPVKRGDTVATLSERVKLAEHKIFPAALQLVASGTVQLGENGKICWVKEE
UniProt Q9C0B1, whole entry, looked up: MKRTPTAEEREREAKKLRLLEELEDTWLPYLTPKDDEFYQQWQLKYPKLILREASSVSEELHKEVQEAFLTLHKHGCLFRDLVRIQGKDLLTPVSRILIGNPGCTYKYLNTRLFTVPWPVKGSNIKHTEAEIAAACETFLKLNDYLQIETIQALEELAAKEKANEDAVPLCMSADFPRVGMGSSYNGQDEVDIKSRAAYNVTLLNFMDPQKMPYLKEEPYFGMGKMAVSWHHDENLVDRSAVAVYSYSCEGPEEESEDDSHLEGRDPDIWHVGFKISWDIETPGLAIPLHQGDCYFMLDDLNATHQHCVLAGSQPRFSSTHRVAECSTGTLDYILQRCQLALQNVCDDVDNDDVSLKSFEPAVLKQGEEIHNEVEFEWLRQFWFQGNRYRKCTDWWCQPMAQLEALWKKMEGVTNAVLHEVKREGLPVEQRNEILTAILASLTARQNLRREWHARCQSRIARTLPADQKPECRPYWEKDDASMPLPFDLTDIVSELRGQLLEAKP
UniProt P07902: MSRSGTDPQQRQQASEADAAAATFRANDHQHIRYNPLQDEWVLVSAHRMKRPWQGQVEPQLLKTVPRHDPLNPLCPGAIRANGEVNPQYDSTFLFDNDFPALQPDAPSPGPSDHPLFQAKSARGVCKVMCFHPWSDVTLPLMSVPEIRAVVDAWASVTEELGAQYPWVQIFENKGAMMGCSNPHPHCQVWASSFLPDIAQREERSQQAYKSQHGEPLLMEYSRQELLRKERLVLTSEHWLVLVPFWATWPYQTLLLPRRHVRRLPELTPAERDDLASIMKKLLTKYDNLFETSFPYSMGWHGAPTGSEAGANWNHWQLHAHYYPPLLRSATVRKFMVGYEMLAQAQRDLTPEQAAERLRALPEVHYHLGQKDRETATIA
UniProt P85037: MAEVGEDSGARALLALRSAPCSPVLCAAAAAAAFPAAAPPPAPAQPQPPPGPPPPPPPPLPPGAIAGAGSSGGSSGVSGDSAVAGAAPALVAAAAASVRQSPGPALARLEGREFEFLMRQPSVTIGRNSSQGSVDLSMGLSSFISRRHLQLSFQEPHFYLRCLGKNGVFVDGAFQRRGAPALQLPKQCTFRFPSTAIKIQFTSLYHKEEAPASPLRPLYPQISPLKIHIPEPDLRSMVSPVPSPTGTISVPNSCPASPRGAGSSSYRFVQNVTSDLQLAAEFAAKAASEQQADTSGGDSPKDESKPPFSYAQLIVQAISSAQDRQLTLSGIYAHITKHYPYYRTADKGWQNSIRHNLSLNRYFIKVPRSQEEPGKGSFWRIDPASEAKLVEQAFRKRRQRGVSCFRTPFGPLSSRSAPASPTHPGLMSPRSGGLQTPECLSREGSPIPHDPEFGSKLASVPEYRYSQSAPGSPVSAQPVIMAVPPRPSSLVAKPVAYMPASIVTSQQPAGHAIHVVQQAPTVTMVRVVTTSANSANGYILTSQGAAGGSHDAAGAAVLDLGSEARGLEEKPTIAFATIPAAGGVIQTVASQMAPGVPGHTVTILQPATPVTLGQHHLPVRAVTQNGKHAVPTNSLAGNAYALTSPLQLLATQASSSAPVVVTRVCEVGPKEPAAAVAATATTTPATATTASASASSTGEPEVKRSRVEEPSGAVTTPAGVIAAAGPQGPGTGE
UniProt Q9UJ14: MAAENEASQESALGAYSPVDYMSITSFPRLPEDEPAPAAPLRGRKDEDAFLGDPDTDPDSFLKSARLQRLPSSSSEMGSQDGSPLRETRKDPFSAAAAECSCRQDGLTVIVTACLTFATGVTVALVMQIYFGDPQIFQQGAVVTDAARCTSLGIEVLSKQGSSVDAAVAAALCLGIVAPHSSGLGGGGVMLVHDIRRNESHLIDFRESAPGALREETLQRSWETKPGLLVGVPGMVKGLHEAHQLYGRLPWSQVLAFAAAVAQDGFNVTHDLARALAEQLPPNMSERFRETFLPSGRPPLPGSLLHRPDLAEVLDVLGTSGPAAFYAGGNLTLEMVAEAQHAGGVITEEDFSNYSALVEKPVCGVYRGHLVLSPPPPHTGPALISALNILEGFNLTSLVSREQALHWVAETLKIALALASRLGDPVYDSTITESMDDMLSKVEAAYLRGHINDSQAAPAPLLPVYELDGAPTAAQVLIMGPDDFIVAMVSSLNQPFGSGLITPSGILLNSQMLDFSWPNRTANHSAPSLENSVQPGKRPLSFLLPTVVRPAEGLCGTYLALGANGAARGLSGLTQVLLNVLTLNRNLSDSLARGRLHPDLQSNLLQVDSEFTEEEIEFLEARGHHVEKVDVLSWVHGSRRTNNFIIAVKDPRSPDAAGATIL
UniProt Q495W5: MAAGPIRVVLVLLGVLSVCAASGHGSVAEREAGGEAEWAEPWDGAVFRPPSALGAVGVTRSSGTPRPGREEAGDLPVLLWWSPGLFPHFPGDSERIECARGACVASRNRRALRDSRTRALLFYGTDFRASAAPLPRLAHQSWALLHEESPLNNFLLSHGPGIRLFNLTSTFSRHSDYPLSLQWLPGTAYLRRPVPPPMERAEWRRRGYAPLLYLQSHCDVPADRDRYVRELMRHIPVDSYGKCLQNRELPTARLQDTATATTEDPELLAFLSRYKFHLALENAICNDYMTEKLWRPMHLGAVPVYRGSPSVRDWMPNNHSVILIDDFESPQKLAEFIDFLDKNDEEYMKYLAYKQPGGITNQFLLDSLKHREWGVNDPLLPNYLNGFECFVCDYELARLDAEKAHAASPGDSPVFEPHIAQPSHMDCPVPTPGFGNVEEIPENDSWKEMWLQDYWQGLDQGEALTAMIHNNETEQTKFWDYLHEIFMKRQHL
UniProt Q6NT46: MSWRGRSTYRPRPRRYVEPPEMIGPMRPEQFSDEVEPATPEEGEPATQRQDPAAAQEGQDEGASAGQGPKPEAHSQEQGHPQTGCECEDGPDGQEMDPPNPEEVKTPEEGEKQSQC

Experiments:
Test in all cases: log2 fold change, soluble protein after heating vs DMSO (PISA); higher = thermal stabilisation; K562 cells, 10 uM, 30 min; active = over 0.2 and 3.5 SD of the protein, either way, in both replicates (recomputed)
[1] = compound: C1=CC=C(C=C1)[C@H](COC2=CC3=C(C=C2)NC(=O)N3)NC(=O)C4=CC=CN(C4=O)CC5=CC(=C(C=C5)F)F
In short: (§1)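 Values are thermal stability changes relative to control samples and are taken from duplicates. They are stated as log2 fold changes. Before quantification by TMTpro 16plex LC-MS/MS with equalised channel sums, K562 cells at 2×10^6 cells/mL were treated with 10 μM compound for 30 min, heated in aliquots for 3 min across 48°C-58°C, pooled, extracted in PBS with 0.5% NP-40 at 4°C, and centrifuged at 21,000xg for 90 min to give the soluble supernatant.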

[2] = compound: CC1=C(SC2=C1C(=N[C@H](C3=NN=C(N32)C)CC(=O)N)C4=CC=C(C=C4)Cl)C
In short: as §1

[3] = compound: CC1=C2C(=CC=C1)N=C(N(C2=O)C3=CC=CC=C3C)CN4C=NC5=C(N=CN=C54)N
In short: as §1

[4] = compound: Cc1sc2c(c1C)C(c1ccc(Cl)cc1)=N[C@@H](CC(=O)OC(C)(C)C)c1nnc(C)n1-2
In short: as §1

[5] = compound: c1ccc([C@@H]2C[C@H]2NC2CCNCC2)cc1
In short: as §1

Measured: log2 fold change

GCLC (UniProt P48506)
inactive: [1] -0.041 | [2] 0.038 | [3] 0.072 | [4] -0.053 | [5] -0.009

FRA10AC1 isoform 3 (UniProt Q70Z53)
inactive: [1] -0.03 | [2] 0.005 | [3] 0.055 | [4] 0.069 | [5] 0.073

FUOM (UniProt A2VDF0)
inactive: [1] 0.043 | [2] 0.099 | [3] -0.088 | [4] -0.273 | [5] -0.076

FUCA2 (UniProt Q9BTY2)
inactive: [1] 0.055 | [2] -0.004 | [3] 0.005 | [4] 0.034 | [5] 0.006

GABARAPL1 isoform 2 (UniProt Q9H0R8)
inactive: [1] 0.02 | [2] 0.094 | [3] 0.073 | [4] -0.022 | [5] -0.036

GGA2 (UniProt Q9UJY4)
inactive: [1] -0.023 | [2] 0.014 | [3] -0.035 | [4] 0.041 | [5] -0.047

GALNT5 (UniProt Q7Z7M9)
inactive: [1] 0.022 | [2] 0.034 | [3] 0.074 | [4] 0.025 | [5] -0.044

GAPVD1 isoform 6 (UniProt Q14C86)
inactive: [1] -0.09 | [2] 0.008 | [3] 0.097 | [4] 0.012 | [5] -0.018

GARS1 (UniProt P41250)
inactive: [1] 0.022 | [2] 0.019 | [3] -0.005 | [4] -0.008 | [5] 0.017

GDPD5 (UniProt Q8WTR4)
inactive: [1] -0.052

GABPB1 isoform 3 (UniProt Q06547)
inactive: [1] -0.001 | [2] -0.031 | [3] 0.263 | [4] -0.236 | [5] -0.134

FUNDC2 (UniProt Q9BWH2)
inactive: [1] 0.019 | [2] 0.015 | [3] -0.034 | [4] 0.026 | [5] 0.023

FXR1 (UniProt P51114)
inactive: [1] 0.022 | [2] -0.218 | [3] -0.05 | [4] 0.207 | [5] 0

GGT2 isoform 3 (UniProt P36268)
inactive: [1] 0.015 | [2] -0.002 | [3] 0.021 | [4] 0.107 | [5] 0.076

GART (UniProt P22102)
inactive: [1] -0.017 | [2] 0.053 | [3] 0.114 | [4] -0.043 | [5] -0.039

GBA (UniProt P04062)
inactive: [1] 0.014 | [2] -0.035 | [3] -0.007 | [4] -0.059 | [5] 0.004

GATC (UniProt O43716)
inactive: [1] 0.032 | [2] 0.046 | [3] 0.03 | [4] -0.088 | [5] -0.009

GFM2 (UniProt Q969S9)
inactive: [1] 0.068

GAGE12F (UniProt P0CL80)
inactive: [1] -0.016 | [2] 0.137 | [3] 0.109 | [4] -0.089 | [5] 0.012

GATD1 (UniProt Q8NB37)
inactive: [1] -0.038 | [2] 0.043 | [3] 0.019 | [4] 0.019 | [5] 0.007

GBF1 (UniProt Q92538)
inactive: [1] -0.078 | [2] 0.036 | [3] 0.072 | [4] -0.005 | [5] 0.003

GDAP1 (UniProt Q8TB36)
inactive: [1] -0.049 | [2] 0.033 | [3] 0.046 | [4] -0.014 | [5] -0.074

FRYL (UniProt O94915)
inactive: [1] -0.007 | [2] 0.03 | [3] 0.019 | [4] -0.016 | [5] 0.021

GCAT isoform 2 (UniProt O75600)
inactive: [1] 0.028 | [2] 0.169 | [3] 0.056 | [4] 0.018 | [5] -0.187

GALNT2 (UniProt Q10471)
inactive: [1] 0.008 | [2] 0.057 | [3] 0.001 | [4] 0.007 | [5] -0.004

GCHFR (UniProt P30047)
inactive: [1] -0.033 | [2] 0.051 | [3] 0.146 | [4] -0.107 | [5] -0.007

2 records picked at random from the list so far:
FUCA2 (UniProt Q9BTY2)
inactive: [1] 0.055 | [2] -0.004 | [3] 0.005 | [4] 0.034 | [5] 0.006

FRYL (UniProt O94915)
inactive: [1] -0.007 | [2] 0.03 | [3] 0.019 | [4] -0.016 | [5] 0.021

Further entries:

GABARAPL2 (UniProt P60520)
inactive: [1] 0.037 | [2] 0.035 | [3] 0.039 | [4] -0.038 | [5] -0.055

FTO (UniProt Q9C0B1)
inactive: [1] 0.023 | [2] 0.047 | [3] 0.011 | [4] -0.007 | [5] 0.043

GDPD1 (UniProt Q8N9F7)
inactive: [1] -0.054 | [2] 0.003 | [3] 0.057 | [4] -0.024 | [5] 0.034

GC isoform 3 (UniProt P02774)
inactive: [1] -0.112 | [2] 0.101 | [3] -0.149 | [4] 0.022 | [5] 0.073

FUBP3 (UniProt Q96I24)
inactive: [1] 0.009 | [2] 0.002 | [3] 0.017 | [4] 0.065 | [5] 0.006

FOXRED1 (UniProt Q96CU9)
inactive: [1] -0.046 | [2] 0.062 | [3] 0.084 | [4] -0.013 | [5] -0.042

GDI2 (UniProt Q5SX86)
inactive: [1] -0.082

GALT (UniProt P07902)
inactive: [1] -0.056 | [2] 0.011 | [3] -0.001 | [4] -0.224 | [5] 0.161

GDI1 (UniProt P31150)
inactive: [1] -0.025 | [2] 0.054 | [3] 0.043 | [4] -0.022 | [5] -0.025

FOXK1 (UniProt P85037)
inactive: [1] 0.104 | [2] -0.042 | [3] 0.253 | [4] -0.402 | [5] 0.049

FUNDC1 (UniProt Q8IVP5)
inactive: [1] 0.052

FXN (UniProt Q16595)
inactive: [1] 0.004 | [2] 0.058 | [3] 0.134 | [4] -0.128 | [5] -0.022

GCLM (UniProt P48507)
inactive: [1] -0.014 | [2] 0.062 | [3] 0.108 | [4] 0 | [5] -0.053

GBE1 (UniProt Q04446)
inactive: [1] -0.116 | [2] 0.01 | [3] -0.009 | [4] 0.03 | [5] 0.008

GGCX (UniProt P38435)
inactive: [1] 0.107 | [2] -0.093 | [3] -0.004 | [4] -0.164 | [5] -0.018

GDE1 (UniProt Q9NZC3)
inactive: [1] -0.019 | [2] 0.037 | [3] 0.025 | [4] -0.078 | [5] -0.055

GAGE5 (UniProt Q13069)
inactive: [1] 0.029 | [2] 0.05 | [3] -0.022 | [4] -0.041 | [5] 0.008

FSCN1 (UniProt Q16658)
inactive: [1] -0.045 | [2] 0.043 | [3] -0.019 | [4] -0.019 | [5] -0.015

GART (UniProt C9JZG2)
inactive: [1] -0.219 | [2] 0.03 | [3] 0.255 | [4] 0.127 | [5] 0.056

GCC2 (UniProt Q8IWJ2)
inactive: [1] -0.027 | [2] -0.116 | [3] 0.004 | [4] 0.066 | [5] -0.059

FYCO1 isoform 4 (UniProt Q9BQS8)
inactive: [1] 0 | [2] -0.021 | [3] 0.017 | [4] -0.012 | [5] 0.045

FTH1 (UniProt P02794)
inactive: [1] -0.007 | [2] 0.027 | [3] -0.158 | [4] 0.05 | [5] -0.037

GADD45GIP1 (UniProt Q8TAE8)
inactive: [1] 0.03 | [2] -0.085 | [3] -0.091 | [4] 0.036 | [5] 0

GALNT7 (UniProt Q86SF2)
inactive: [1] 0.006 | [2] 0.052 | [3] 0.005 | [4] -0.01 | [5] -0.038

GGT7 (UniProt Q9UJ14)
inactive: [1] 0.028 | [2] -0.055 | [3] -0.069 | [4] 0.026 | [5] 0.032

FUT11 (UniProt Q495W5)
inactive: [1] -0.028 | [2] -0.041 | [3] 0.009 | [4] -0.036 | [5] -0.084

FOXJ3 (UniProt Q9UPW0)
inactive: [1] -0.007 | [2] 0.069 | [3] -0.115 | [4] -0.032 | [5] 0.08

GALNT11 (UniProt Q8NCW6)
inactive: [1] -0.027 | [2] 0.096 | [3] 0.093 | [4] -0.097 | [5] -0.027

GAGE2A (UniProt Q6NT46)
inactive: [1] -0.012 | [2] 0.052 | [3] 0.045 | [4] -0.031 | [5] -0.002
